Test results from patent US10450346B2, “Immunotherapy against several tumors of the blood, in particular chronic lymphoid leukemia (CLL)” (Immatics biotechnologies GmbH, priority 2014, dated 2019).

B1: poly (ADP-ribose) polymerase family, member 3 (protein, UniProt Q9Y6F1 1-533, looked up)
Protein …: MAPKPKPWVQTEGPEKKKGRQAGREEDPFRSTAEALKAIPAEKRIIRVDPTCPLSSNPGTQVYEDYNCTLNQTNIENNNNKFYIIQLLQDSNRFFTCWNRWGRVGEVGQSKINHFTRLEDAKKDFEKKFREKTKNNWAERDHFVSHPGKYTLIEVQAEDEAQEAVVKVDRGPVRTVTKRVQPCSLDPATQKLITNIFSKEMFKNTMALMDLDVKKMPLGKLSKQQIARGFEALEALEEALKGPTDGGQSLEELSSHFYTVIPHNFGHSQPPPINSPELLQAKKDMLLVLADIELAQALQAVSEQEKTVEEVPHPLDRDYQLLKCQLQLLDSGAPEYKVIQTYLEQTGSNHRCPTLQHIWKVNQEGEEDRFQAHSKLGNRKLLWHGTNMAVVAAILTSGLRIMPHSGGRVGKGIYFASENSKSAGYVIGMKCGAHHVGYMFLGEVALGREHHINTDNPSLKSPPPGFDSVIARGHTEPDPTQDTELELDGQQVVVPQGQPVPCPEFSSSTFSQSEYLIYQESQCRLRYLLEVHL
B2: tumor protein p53 inducible protein 11 (protein, UniProt O14683 1-189, looked up)
Tumor protein p53-inducible …: MAAKQPPPLMKKHSQTDLVSRLKTRKILGVGGEDDDGEVHRSKISQVLGNEIKFTIREPLGLRVWQFVSAVLFSGIAIMALAFPDQLYDAVFDGAQVTSKTPIRLYGGALLSISLIMWNALYTAEKVIIRWTLLTEACYFGVQFLVVTATLAETGLMSLGILLLLVSRLLFVVISIYYYYQVGRRPKKA
notes: LiTAA source protein
B3: interferon regulatory factor 9 (protein, UniProt Q00978 1-393, looked up)
Interferon regulatory factor 9: MASGRARCTRKLRNWVVEQVESGQFPGVCWDDTAKTMFRIPWKHAGKQDFREDQDAAFFKAWAIFKGKYKEGDTGGPAVWKTRLRCALNKSSEFKEVPERGRMDVAEPYKVYQLLPPGIVSGQPGTQKVPSKRQHSSVSSERKEEEDAMQNCTLSPSVLQDSLNNEEEGASGGAVHSDIGSSSSSSSPEPQEVTDTTEAPFQGDQRSLEFLLPPEPDYSLLLTFIYNGRVVGEAQVQSLDCRLVAEPSGSESSMEQVLFPKPGPLEPTQRLLSQLERGILVASNPRGLFVQRLCPIPISWNAPQAPPGPGPHLLPSNECVELFRTAYFCRDLVRYFQGLGPPPKFQVTLNFWEESHGSSHTPQNLITVKMEQAFARYLLEQTPEQQAAILSLV
notes: LiTAA source protein
B4: lysine (K)-specific demethylase 2B (protein, UniProt Q8NHM5 1-1336, looked up)
Lysine-specific demethylase 2B: MAGPQMGGSAEDHPPRKRHAAEKQKKKTVIYTKCFEFESATQRPIDRQRYDENEDLSDVEEIVSVRGFSLEEKLRSQLYQGDFVHAMEGKDFNYEYVQREALRVPLIFREKDGLGIKMPDPDFTVRDVKLLVGSRRLVDVMDVNTQKGTEMSMSQFVRYYETPEAQRDKLYNVISLEFSHTKLEHLVKRPTVVDLVDWVDNMWPQHLKEKQTEATNAIAEMKYPKVKKYCLMSVKGCFTDFHIDFGGTSVWYHVFRGGKIFWLIPPTLHNLALYEEWVLSGKQSDIFLGDRVERCQRIELKQGYTFFIPSGWIHAVYTPVDSLVFGGNILHSFNVPMQLRIYEIEDRTRVQPKFRYPFYYEMCWYVLERYVYCVTQRSHLTQEYQRESMLIDAPRKPSIDGFSSDSWLEMEEEACDQQPQEEEEKDEEGEGRDRAPKPPTDGSTSPTSTPSEDQEALGKKPKAPALRFLKRTLSNESEESVKSTTLAVDYPKTPTGSPATEVSAKWTHLTEFELKGLKALVEKLESLPENKKCVPEGIEDPQALLEGVKNVLKEHADDDPSLAITGVPVVTWPKKTPKNRAVGRPKGKLGPASAVKLAANRTTAGARRRRTRCRKCEACLRTECGECHFCKDMKKFGGPGRMKQSCIMRQCIAPVLPHTAVCLVCGEAGKEDTVEEEEGKFNLMLMECSICNEIIHPGCLKIKESEGVVNDELPNCWECPKCNHAGKTGKQKRGPGFKYASNLPGSLLKEQKMNRDNKEGQEPAKRRSECEEAPRRRSDEHSKKVPPDGLLRRKSDDVHLRKKRKYEKPQELSGRKRASSLQTSPGSSSHLSPRPPLGSSLSPWWRSSLTYFQQQLKPGKEDKLFRKKRRSWKNAEDRMALANKPLRRFKQEPEDELPEAPPKTRESDHSRSSSPTAGPSTEGAEGPEEKKKVKMRRKRRLPNKELSRELSKELNHEIQRTENSLANENQQPIKSEPESEGEEPKRPPGICERPHRFSKGLNGTPRELRHQLGPSLRSPPRVISRPPPSVSPPKCIQMERHVIRPPPISPPPDSLPLDDGAAHVMHREVWMAVFSYLSHQDLCVCMRVCRTWNRWCCDKRLWTRIDLNHCKSITPLMLSGIIRRQPVSLDLSWTNISKKQLSWLINRLPGLRDLVLSGCSWIAVSALCSSSCPLLRTLDVQWVEGLKDAQMRDLLSPPTDNRPGQMDNRSKLRNIVELRLAGLDITDASLRLIIRHMPLLSKLHLSYCNHVTDQSINLLTAVGTTTRDSLTEINLSDCNKVTDQCLSFFKRCGNICHIDLRYCKQVTKEGCEQFIAEMSVSVQFGQVEEKLLQKLS
notes: LiTAA source protein
B5: TBC1 domain family, member 22A (protein, UniProt Q8WUA7 2-517, looked up)
TBC1 domain family member 22A: ASDGARKQFWKRSNSKLPGSIQHVYGAQHPPFDPLLHGTLLRSTAKMPTTPVKAKRVSTFQEFESNTSDAWDAGEDDDELLAMAAESLNSEVVMETANRVLRNHSQRQGRPTLQEGPGLQQKPRPEAEPPSPPSGDLRLVKSVSESHTSCPAESASDAAPLQRSQSLPHSATVTLGGTSDPSTLSSSALSEREASRLDKFKQLLAGPNTDLEELRRLSWSGIPKPVRPMTWKLLSGYLPANVDRRPATLQRKQKEYFAFIEHYYDSRNDEVHQDTYRQIHIDIPRMSPEALILQPKVTEIFERILFIWAIRHPASGYVQGINDLVTPFFVVFICEYIEAEEVDTVDVSGVPAEVLCNIEADTYWCMSKLLDGIQDNYTFAQPGIQMKVKMLEELVSRIDEQVHRHLDQHEVRYLQFAFRWMNNLLMREVPLRCTIRLWDTYQSEPDGFSHFHLYVCAAFLVRWRKEILEEKDFQELLLFLQNLPTAHWDDEDISLLLAEAYRLKFAFADAPNHYKK
notes: LiTAA source protein
B6: zinc finger protein 296 (protein, UniProt Q8WUU4 1-475, looked up)
Zinc finger protein 296: MSRRKAGSAPRRVEPAPAANPDDEMEMQDLVIELKPEPDAQPQQAPRLGPFSPKEVSSAGRFGGEPHHSPGPMPAGAALLALGPRNPWTLWTPLTPNYPDRQPWTDKHPDLLTCGRCLQTFPLEAITAFMDHKKLGCQLFRGPSRGQGSEREELKALSCLRCGKQFTVAWKLLRHAQWDHGLSIYQTESEAPEAPLLGLAEVAAAVSAVVGPAAEAKSPRASGSGLTRRSPTCPVCKKTLSSFSNLKVHMRSHTGERPYACDQCPYACAQSSKLNRHKKTHRQVPPQSPLMADTSQEQASAAPPEPAVHAAAPTSTLPCSGGEGAGAAATAGVQEPGAPGSGAQAGPGGDTWGAITTEQRTDPANSQKASPKKMPKSGGKSRGPGGSCEFCGKHFTNSSNLTVHRRSHTGERPYTCEFCNYACAQSSKLNRHRRMHGMTPGSTRFECPHCHVPFGLRATLDKHLRQKHPEAAGEA
notes: LiTAA source protein
B7: zinc finger, AN1-type domain 5 (protein, UniProt O76080 1-213, looked up)
AN1-type zinc finger protein 5: MAQETNQTPGPMLCSTGCGFYGNPRTNGMCSVCYKEHLQRQQNSGRMSPMGTASGSNSPTSDSASVQRADTSLNNCEGAAGSTSEKSRNVPVAALPVTQQMTEMSISREDKITTPKTEVSEPVVTQPSPSVSQPSTSQSEEKAPELPKPKKNRCFMCRKKVGLTGFDCRCGNLFCGLHRYSDKHNCPYDYKAEAAAKIRKENPVVVAEKIQRI
notes: LiTAA source protein
B8: AT rich interactive domain 5B (MRF1-like) (protein, UniProt Q14865 1-1188, looked up)
AT-rich interactive …: MEPNSLQWVGSPCGLHGPYIFYKAFQFHLEGKPRILSLGDFFFVRCTPKDPICIAELQLLWEERTSRQLLSSSKLYFLPEDTPQGRNSDHGEDEVIAVSEKVIVKLEDLVKWVHSDFSKWRCGFHAGPVKTEALGRNGQKEALLKYRQSTLNSGLNFKDVLKEKADLGEDEEETNVIVLSYPQYCRYRSMLKRIQDKPSSILTDQFALALGGIAVVSRNPQILYCRDTFDHPTLIENESICDEFAPNLKGRPRKKKPCPQRRDSFSGVKDSNNNSDGKAVAKVKCEARSALTKPKNNHNCKKVSNEEKPKVAIGEECRADEQAFLVALYKYMKERKTPIERIPYLGFKQINLWTMFQAAQKLGGYETITARRQWKHIYDELGGNPGSTSAATCTRRHYERLILPYERFIKGEEDKPLPPIKPRKQENSSQENENKTKVSGTKRIKHEIPKSKKEKENAPKPQDAAEVSSEQEKEQETLISQKSIPEPLPAADMKKKIEGYQEFSAKPLASRVDPEKDNETDQGSNSEKVAEEAGEKGPTPPLPSAPLAPEKDSALVPGASKQPLTSPSALVDSKQESKLCCFTESPESEPQEASFPSFPTTQPPLANQNETEDDKLPAMADYIANCTVKVDQLGSDDIHNALKQTPKVLVVQSFDMFKDKDLTGPMNENHGLNYTPLLYSRGNPGIMSPLAKKKLLSQVSGASLSSSYPYGSPPPLISKKKLIARDDLCSSLSQTHHGQSTDHMAVSRPSVIQHVQSFRSKPSEERKTINDIFKHEKLSRSDPHRCSFSKHHLNPLADSYVLKQEIQEGKDKLLEKRALPHSHMPSFLADFYSSPHLHSLYRHTEHHLHNEQTSKYPSRDMYRESENSSFPSHRHQEKLHVNYLTSLHLQDKKSAAAEAPTDDQPTDLSLPKNPHKPTGKVLGLAHSTTGPQESKGISQFQVLGSQSRDCHPKACRVSPMTMSGPKKYPESLSRSGKPHHVRLENFRKMEGMVHPILHRKMSPQNIGAARPIKRSLEDLDLVIAGKKARAVSPLDPSKEVSGKEKASEQESEGSKAAHGGHSGGGSEGHKLPLSSPIFPGLYSGSLCNSGLNSRLPAGYSHSLQYLKNQTVLSPLMQPLAFHSLVMQRGIFTSPTNSQQLYRHLAAATPVGSSYGDLLHNSIYPLAAINPQAAFPSSQLSSVHPSTKL
notes: LiTAA source protein

Each molecule was assayed on primary CLL samples (PBMC from CLL patients), HLA class I ligands (assay: HLA class I ligandome analysis by LC-MS/MS (frequency of HLA restricted presentation)). Settings: CLL patient HLA class I ligandomes (n = 30).
Parameters: species or system human

Molecule | Number of positive CLLs
B1 | 10
B2 | 8
B3 | 8
B4 | 8
B5 | 8
B6 | 8
B7 | 7
B8 | 7

Same assay, conditions: source protein (LiTAA) representation in CLL patient HLA class I ligandomes (n = 30)

Molecule | Number of positive CLLs (frequency [%]) [%]
B1 | 33.3
B2 | 26.7
B3 | 26.7
B4 | 26.7
B5 | 26.7
B6 | 26.7
B7 | 23.3
B8 | 23.3
